Laboratory results: publication PMC4787770
Results are given in words; binding and its absence hold for the method and conditions named. In cells and extracts the contact can be indirect. Some results given as binding are weak or reduced against the parent protein; the word gives no strength. Sequences can lack the tags named with a protein.

What was measured:
[1] = target: T1, HPL-2::GFP (C. elegans) (UniProt G5EDE2); test: co-IP; 2 mg total protein from eggs of hpl-1::GFP or hpl-2::GFP lines in IP buffer B (300 mM KCl, 0.2% Igepal), pre-cleared, Magnetic GFP-Trap beads 2 h at 4°C, five washes; western blotting
T1 sequence: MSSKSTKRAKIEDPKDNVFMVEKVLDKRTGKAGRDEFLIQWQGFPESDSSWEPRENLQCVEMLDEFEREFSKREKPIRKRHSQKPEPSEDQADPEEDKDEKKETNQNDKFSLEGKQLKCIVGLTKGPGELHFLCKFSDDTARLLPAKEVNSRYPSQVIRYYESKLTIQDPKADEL

[2] = target: T2, HPL-1::GFP (C. elegans) (UniProt G5EET5); test: as above
T2 sequence: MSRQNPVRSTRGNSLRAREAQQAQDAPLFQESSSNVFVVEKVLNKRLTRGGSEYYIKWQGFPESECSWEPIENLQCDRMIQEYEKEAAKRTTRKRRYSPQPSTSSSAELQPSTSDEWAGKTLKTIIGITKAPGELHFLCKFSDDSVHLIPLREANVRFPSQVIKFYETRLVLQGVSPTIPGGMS

binding [1]: no binding
binding [2]: binds
B1: SPR-5 (protein, UniProt Q9XWP6 1-770)
chain: MSSDTGSEYLDEEIRGDELGPSIDDNALAAAASAARLPFDRPTDHELAFFPELWEHKTAVEVFLLLRNSTLATWQYNPLKECTALDVRNNVFPPFNSDLDLIQNIVHYLSRHGLINFGRYVRSTKISRFLVRDRRSVIVIGAGAAGISAATQLESFGFDVIVLEARNCIGGRIHSFKSKSGEIMETGGDTLRKIEDSPMATLLHQVNFEEHGVFDFTSVFVEGRPLNEEKIHLFLDHYKSAHGALNYQAHQCEHRDDQGSFISRQQAYENLLSMCERGTLIKYYNFCKSLETVARAREHHFNQMKQLRMTALMAENQLKKMEEEGNLEQDPVLRRSLKRDIATSLEKFEEVADAFETADNHWQRLNEHPQAKQYMHPGSEFATFNFMLGFEEYLVGAQLEKVQFSCDSMQNKENGVAARLTEGIAELLTQLSEKRKLDIRLKHRVLDIDYSGFEHVLLKVQRENGDIEEMKAAFVVSTLPIGVLKKTIIADERAPTFTPSLPDKKVEAIRNIGCGSVNKCILEFDRVFWTANGGRNQFVTVSPNIKTRGSMNIWSSVPGSKVLCTYIVGEEAMLELPDDVIIQNAMINLQKAFGNNCPRAPISAHITRWHDDELAFGSGAFMSLRTETTSFDDVMEPLKTSDGMSRVYFAGEHTCSSYTSTIQGAWMSGARAAADISNDHIGIGFVDISGTRGQRGDEEEELLIEVDIDGKIPEKDENEAVADIPNAPNAPNAQKPEEIPKIAEEIELVAEAEKAEKAEVQLEPLVPTVE
